From PubChem BioAssay AID330 (DTP/NCI, 2004)
The list shows only some results of the screen, not a fair sample: it gathers tests that were run many times, whatever their T/C, doses with no T/C, and many T/C values between a quarter and a half above the control. Other doses and runs of a compound stand elsewhere. T/C is the treated group as % of the vehicle group. Some doses have a count of surviving animals in place of a T/C: the source holds a T/C of zero for them, seemingly a mark for toxic or unscored doses. Some survivor counts are full or nearly so, which does not show that the dose was tolerated: survival well below the control is almost never listed, so the zero probably covers shortened survival too. Survivors were counted at the toxicity check, usually on the fifth day, unless a day is given; later deaths do not show. Schedules are NCI's codes, read here as Q, the interval in days (D) or hours (H), X, the number of doses. Some molecules as drawn cover several salts, stereoisomers or complexes of the source; a dose is that of the sample tested. Some entries were tested several times; their values stand side by side, smallest first. For survival time, the PubChem record calls one and a half times the control and up active, and a quarter to a half above the control has no call in these data; cut-offs in other NCI protocols can differ. Some T/C values carry the count of animals alive at the toxicity check (mostly the fifth day); without a count, all were alive then.

Tested on: P388 leukemia ip, CD2F1 mice, survival T/C
Test: NCI In Vivo Anticancer Drug Screen. Data for tumor model P388 Leukemia (intraperitoneal) in CD2F1 (CDF1) mice
Conditions: T/C endpoint: median survival time, higher T/C = longer survival
[1] = dose: 25.0 mg/kg/injection, schedule: Q01DX009 (ip), vehicle: saline with Tween-80
[2] = dose: 50.0 mg/kg/injection, schedule: Q01DX009 (ip), vehicle: saline with Tween-80
[3] = dose: 100.0 mg/kg/injection, schedule: Q01DX009 (ip), vehicle: saline with Tween-80
[4] = dose: 50.0 mg/kg/injection, schedule: Q01DX005 (ip), vehicle: Klucel (hydroxypropylcellulose) (HPC)
[5] = dose: 100.0 mg/kg/injection, schedule: Q01DX005 (ip), vehicle: Klucel (hydroxypropylcellulose) (HPC)
[6] = dose: 200.0 mg/kg/injection, schedule: Q01DX005 (ip), vehicle: Klucel (hydroxypropylcellulose) (HPC)
[7] = dose: 400.0 mg/kg/injection, schedule: Q04DX003 (ip), vehicle: Klucel (hydroxypropylcellulose) (HPC)
[8] = dose: 200.0 mg/kg/injection, schedule: Q01DX009 (ip), vehicle: saline with Tween-80
[9] = dose: 400.0 mg/kg/injection, schedule: Q04DX002 (ip), vehicle: saline
[10] = dose: 400.0 mg/kg/injection, schedule: Q04DX003 (ip), vehicle: saline
[11] = dose: 50.0 mg/kg/injection, schedule: Q01DX009 (ip), vehicle: saline
[12] = dose: 200.0 mg/kg/injection, schedule: Q01DX009 (ip), vehicle: saline
[13] = dose: 200.0 mg/kg/injection, schedule: Q01DX005 (ip), vehicle: saline with Tween-80
[14] = dose: 100.0 mg/kg/injection, schedule: Q01DX005 (ip), vehicle: saline with Tween-80

Question: With `c1ccc(OCCC[P+](c2ccccc2)(c2ccccc2)c2ccccc2)cc1` as the compound, how does the survivor count (dose: 3.13 mg/kg/injection, schedule: Q01DX009 (ip), vehicle: saline sonified) read?
Answer: 3 of 6

Question: What about the T/C (dose: 6.0 mg/kg/injection, schedule: Q01DX010 (ip), vehicle: carboxymethylcellulose (CMC)) of the same compound?
Answer: 130 % of control

Question: What about the T/C (dose: 6.25 mg/kg/injection, schedule: Q01DX009 (ip), vehicle: saline sonified) of the same compound?
Answer: 125 % of control

Question: And the survivor count (dose: 9.3 mg/kg/injection, schedule: Q01DX009 (ip), vehicle: saline sonified)?
Answer: 4 of 6

Question: What about the survivor count (dose: 12.5 mg/kg/injection, schedule: Q01DX009 (ip), vehicle: saline sonified) of the same compound?
Answer: 3 of 6

Question: What about the survivor count [1] of the same compound?
Answer: 4 of 6

Question: And the survivor count [2]?
Answer: 0 of 6

Question: And the survivor count [3]?
Answer: 0 of 6

Question: How did the survivor count [4] turn out when `Cc1ccc(-n2c(C)nc3[nH]cc(C)c3c2=N)cc1` was run?
Answer: 2 of 6

Question: And the survivor count [5]?
Answer: 0 of 6

Question: And the survivor count [6]?
Answer: 0 of 6

Question: For `CC1(C)CC(c2ccccc2)C(c2ccccc2)C(=O)O1` (stereo unspecified), which survivor count [7] is on record?
Answer: 2 of 6

Question: For `CC([Se])=Nc1ccc(Br)cc1`, which survivor count (dose: 50.0 mg/kg/injection, schedule: Q04DX003 (ip), vehicle: Klucel (hydroxypropylcellulose) (HPC)) is on record?
Answer: 0 of 6

Question: What about the survivor count (dose: 100.0 mg/kg/injection, schedule: Q04DX003 (ip), vehicle: Klucel (hydroxypropylcellulose) (HPC)) of the same compound?
Answer: 0 of 6

Question: What about the survivor count (dose: 200.0 mg/kg/injection, schedule: Q04DX003 (ip), vehicle: Klucel (hydroxypropylcellulose) (HPC)) of the same compound?
Answer: 0 of 6

Question: And the survivor count [7]?
Answer: 0 of 6

Question: `CS(=O)(=O)OCCN(CCOS(C)(=O)=O)c1ccc(/C=N/Nc2ncnc3nc[nH]c23)cc1` was tested. Which T/C (dose: 12.5 mg/kg/injection, schedule: Q04DX003 (ip), vehicle: saline with Tween-80) did it give?
Answer: 127 % of control

Question: What about the T/C (dose: 25.0 mg/kg/injection, schedule: Q04DX003 (ip), vehicle: saline with Tween-80) of the same compound?
Answer: 127 % of control

Question: What about the T/C (dose: 50.0 mg/kg/injection, schedule: Q04DX003 (ip), vehicle: saline with Tween-80) of the same compound?
Answer: 140 % of control

Question: What about the survivor count [8] of the same compound?
Answer: 6 of 6

Question: Which survivor count (dose: 100.0 mg/kg/injection, schedule: Q04DX002 (ip), vehicle: saline) does the source give for `CN1CC=C(c2ccccc2)C(O)C1` (stereo unspecified) here?
Answer: 0 of 6

Question: What about the survivor count (dose: 120.0 mg/kg/injection, schedule: Q01DX005 (ip), vehicle: saline) of the same compound?
Answer: 0 of 6

Question: And the survivor count (dose: 200.0 mg/kg/injection, schedule: Q04DX002 (ip), vehicle: saline)?
Answer: 0 of 6

Question: And the survivor count (dose: 240.0 mg/kg/injection, schedule: Q01DX005 (ip), vehicle: saline)?
Answer: 0 of 6

Question: What about the survivor count [9] of the same compound?
Answer: 0 of 6

Question: `C1=CC=CCC=C1` was tested. Which T/C [1] did it give?
Answer: 130 % of control

Question: And the T/C [2]?
Answer: 135 % of control

Question: How did the survivor count [10] turn out when `Nc1nnn(N)n1` was run?
Answer: 4 of 6

Question: How did the survivor count (dose: 2.5 mg/kg/injection, schedule: Q01DX009 (ip), vehicle: Klucel (hydroxypropylcellulose) (HPC)) turn out when `CCCCCCCCCCCCCCCCSC1=CC(=O)C(Cl)=C(Cl)C1=O` was run?
Answer: 6 of 6

Question: What about the survivor count (dose: 5.0 mg/kg/injection, schedule: Q01DX009 (ip), vehicle: Klucel (hydroxypropylcellulose) (HPC)) of the same compound?
Answer: 6 of 6

Question: What does the source list for `Clc1nc(Cl)nc(-c2cn(-c3ccccc3)c3ccccc23)n1`?
Answer: survivor count [3]: 6 of 6; survivor count [8]: 6 of 6; survivor count (dose: 400.0 mg/kg/injection, schedule: Q01DX009 (ip), vehicle: saline with Tween-80): 6 of 6

Question: Which results are given for `CC(=O)[O][Sn]([CH3])([CH3])[c]1ccccc1`?
Answer: survivor count (dose: 12.5 mg/kg/injection, schedule: Q01DX009 (ip), vehicle: saline): 2 of 6; survivor count (dose: 25.0 mg/kg/injection, schedule: Q01DX009 (ip), vehicle: saline): 0 of 6; survivor count [11]: 0 of 6; survivor count (dose: 100.0 mg/kg/injection, schedule: Q01DX009 (ip), vehicle: saline): 0 of 6; survivor count [12]: 0 of 6

Question: Which results are given for `Fc1ccc2[nH]cc(C3CCCN4CCCCC34)c2c1` (stereo unspecified)?
Answer: survivor count (dose: 200.0 mg/kg/injection, schedule: Q01DX001 (ip), vehicle: saline with Tween-80): 1 of 6; survivor count (dose: 400.0 mg/kg/injection, schedule: Q01DX001 (ip), vehicle: saline with Tween-80): 0 of 6

Question: For `Cc1cc(C)c(CSc2cc(N)nc(N)c2N)c(C)c1`, which survivor count (dose: 200.0 mg/kg/injection, schedule: Q01DX009 (ip), vehicle: Klucel (hydroxypropylcellulose) (HPC)) is on record?
Answer: 0 of 6

Question: What about the survivor count (dose: 400.0 mg/kg/injection, schedule: Q01DX009 (ip), vehicle: Klucel (hydroxypropylcellulose) (HPC)) of the same compound?
Answer: 0 of 6

Question: Which survivor count [11] does the source give for `CNC(=O)C1CCCN1C(=O)C(Cl)Cl` (stereo unspecified) here?
Answer: 0 of 6

Question: Which survivor count (dose: 200.0 mg/kg/injection, schedule: Q01DX009 (ip), vehicle: other) does the source give for `COc1ccc(C(Cl)c2ccc(OC)c(OC)c2)cc1OC` here?
Answer: 3 of 6

Question: What about the survivor count (dose: 400.0 mg/kg/injection, schedule: Q01DX009 (ip), vehicle: other) of the same compound?
Answer: 2 of 6

Question: Which survivor count (dose: 400.0 mg/kg/injection, schedule: Q04DX003 (ip), vehicle: saline with Tween-80) does the source give for `Cn1nc(N)c2ncc(-c3ccc(Cl)cc3)nc21` here?
Answer: 4 of 6

Question: With `C=C(Br)C(=NC(C)(C)C)Nc1ccccc1Cl` as the compound, how does the T/C (dose: 50.0 mg/kg/injection, schedule: Q01DX005 (ip), vehicle: Klucel (hydroxypropylcellulose) (HPC), evaluated on day 20) read?
Answer: 107 and 117 % of control [5 of 6 alive]

Question: What about the T/C (dose: 50.0 mg/kg/injection, schedule: Q01DX005 (ip), vehicle: Klucel (hydroxypropylcellulose) (HPC), evaluated on day 30) of the same compound?
Answer: 103 % of control

Question: And the survivor count [4]?
Answer: 4 of 5

Question: And the T/C (dose: 100.0 mg/kg/injection, schedule: Q01DX005 (ip), vehicle: Klucel (hydroxypropylcellulose) (HPC), evaluated on day 20)?
Answer: 117 % of control

Question: And the T/C (dose: 100.0 mg/kg/injection, schedule: Q01DX005 (ip), vehicle: Klucel (hydroxypropylcellulose) (HPC), evaluated on day 30)?
Answer: 108 % of control [5 of 6 alive]

Question: What about the survivor count [5] of the same compound?
Answer: 3 of 6 and 5 of 5

Question: What about the T/C (dose: 200.0 mg/kg/injection, schedule: Q01DX005 (ip), vehicle: Klucel (hydroxypropylcellulose) (HPC), evaluated on day 20) of the same compound?
Answer: 130 % of control

Question: And the T/C (dose: 200.0 mg/kg/injection, schedule: Q01DX005 (ip), vehicle: Klucel (hydroxypropylcellulose) (HPC), evaluated on day 30)?
Answer: 105 % of control

Question: What about the survivor count [6] of the same compound?
Answer: 0 of 5, 0 of 6, 1 of 6

Question: Which survivor count [5] does the source give for `CCCOC(=O)NC(C)C(=O)NC(CCC(=O)NC(CCCC(N)C(=O)O)C(=O)NC(C)C(=O)O)C(=O)O` (stereo unspecified) here?
Answer: 1 of 5

Question: What about the survivor count [6] of the same compound?
Answer: 0 of 5

Question: Which T/C [13] does the source give for `CC(C)OC(=O)Nc1ccc2nc(-c3cscn3)[nH]c2c1` here?
Answer: 133 % of control

Question: With `[Cl][Pd][Cl].[NH-]C(C(=O)OCc1ccccc1)c1ccccc1.[NH-]C(C(=O)OCc1ccccc1)c1ccccc1` (stereo unspecified) as the compound, how does the survivor count (dose: 200.0 mg/kg/injection, schedule: Q04DX003 (ip), vehicle: saline) read?
Answer: 6 of 6

Question: And the survivor count [10]?
Answer: 6 of 6

Question: How did the survivor count [12] turn out when `CN(C)CCC1C2CC3CC(C2)CC1C3` (stereo unspecified) was run?
Answer: 0 of 6

Question: For `O=[N+]([O-])C(c1ccccc1)C(c1ccccc1)[N+](=O)[O-]` (stereo unspecified), which T/C [14] is on record?
Answer: 128 % of control [5 of 6 alive]

Question: What about the survivor count [13] of the same compound?
Answer: 3 of 6 and 4 of 6

Question: Which survivor count (dose: 240.0 mg/kg/injection, schedule: Q01DX005 (ip), vehicle: saline with Tween-80) does the source give for `Cc1nccn1CC(=O)c1ccccc1` here?
Answer: 1 of 6

Question: Which survivor count [14] does the source give for `COc1cc(NCCCCCNCC(C)(C)C)c2ncccc2c1` here?
Answer: 0 of 6

Question: What about the survivor count [13] of the same compound?
Answer: 0 of 6

Question: For `CCCCCOC(=O)c1ccc(O)cc1`, which survivor count [8] is on record?
Answer: 2 of 6

Question: For `CCCCn1cnc2c(cnn2C)c1=N`, which survivor count [9] is on record?
Answer: 0 of 6

Question: What does the source list for `FC(F)(F)COSc1ccccc1`?
Answer: survivor count (dose: 100.0 mg/kg/injection, schedule: Q04DX002 (ip), vehicle: saline with Tween-80): 0 of 6; survivor count (dose: 200.0 mg/kg/injection, schedule: Q04DX002 (ip), vehicle: saline with Tween-80): 0 of 6; survivor count (dose: 400.0 mg/kg/injection, schedule: Q04DX002 (ip), vehicle: saline with Tween-80): 0 of 6
